Results deposited as PubChem BioAssay AID720505 (Drosophila RNAi Screening Center, 2013).
Test: 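Genes needed for store-operated calcium entry in fly cells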 (primary screen). System: Drosophila S2R+ cells. Reagent: long dsRNA against Drosophila genes. Challenge: thapsigargin (2 µM) in calcium-free buffer to empty internal stores, then 2 mM calcium added back. Read-out: 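Stores emptied by 2 µM thapsigargin without calcium, then 2 mM calcium re-added; fluo-4 fluorescence followed by FLIPR in 384-well plates, per-well averaged endpoint, raw; two screen passes, some wells retested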. Scale: calcium signal and retest calcium signal: higher = more calcium entry after store depletion. Hit rule: 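About 1500 genes called as lowering calcium entry, by varying amounts, judged against per-plate control wells with STIM1 as positive and Rho1 as negative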. Meaning of the calls: active = called as lowering calcium entry; inactive = not called.
In all, the deposit lists about 20,000 reagents; shown is a random part of those that have a named target and a result. In the full data, about 2,100 (10%) are marked active. 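Raw plate signals without normalisation; calls rest on control-based scores that were not deposited; replicate 2 separates called from uncalled poorly.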 Unmarked entries are inactive. The numbers tell different reagents against one gene apart. Names joined by + are all predicted targets of the reagent. Reagent sequences are not shown. Not stated in the record: the amount of reagent, the time to read-out.

Gene	reagent	calcium signal, replicate 1	calcium signal, replicate 2	retest calcium signal, replicate 1	retest calcium signal, replicate 2
CG10211	1	66 (active)	95.9		
CG15717	1	114	97.3		
Dpit47	1	115	165		
Bap170	1	181	86.8		
Bap170	2	141	98.8		
Su(z)12	1	90.3	97.3		
Idh3g	1	120	124		
Nak	1	90.5	105		
CG13358	1	92.5	117		
CG17752	1	197	117		
ND-49	1	118	155		
dx	1	102 (active)	139		
CG13585	1	155	224		
CG10345	1	227	218		
Elba1	1	115	109		
CstF50	1	110	127		
pic	1	112	88.3		
Rbbp5 + CG6434 (retired record)	1	66.8 (active)	152		
CG9289	1	160	155		
Cyp9b2	1	123	137		
CG13040	1	74.6 (active)	83.3		
sisA	1	55.7 (active)	124		
CG8870	1	144	213		
Ctns	1	143	114		
CG6696	1	76.2	93.6		
CG15831 (retired record)	1	205	83.9		
CycG	1	118	119		
CycG	2	109	143		
CG17107	1	224	131	97.8	119
CG17107	2	113	210		
Arl2	1	141	108		
thw	1	45.4 (active)	170		

As entered above.
sisA, calcium signal, replicate 1 → 55.7 (active)
Result for CG8870 under “calcium signal, replicate 2”: 213
Result for dx in “calcium signal, replicate 2”: 139 (active)
For “calcium signal, replicate 1”, CG9289 shows 160
thw, calcium signal, replicate 2: 170 (active)
Result for Su(z)12 in “calcium signal, replicate 1”: 90.3

Next reagents:
Gene	reagent	calcium signal, replicate 1	calcium signal, replicate 2	retest calcium signal, replicate 1	retest calcium signal, replicate 2
Pgant2	1	191	115		
CG1441	1	272	157		
CG1896	1	111	80.3		
mRpL44	1	91.3	132		
Pp1-Y2	1	118	110		
Ubr3	1	152	151		
Ubr3	2	177	132		
Ir56a	1	118	100		
CG34447	1	198	89.6		
sgll	1	126	150		
asf1	1	98.1	101		
par-1	1	59.4 (active)	111		
par-1	2	183	215		
par-1	3	138	97.1		
par-1	4	177	117		
par-1	5	174	150		
Ca-beta	1	212	166		
Ca-beta	2	202	165		
Ca-beta	3	171	198	132	125
Ca-beta	4	161	102		
Nplp4	1	128	105		
CG14540	1	280	144		
CG31091	1	222	158		
CG8507	1	148	100		
